For four molecules, binding results are on record in publication doi:10.1101/2022.07.11.499617.

Where two headings read alike, the source gives them in different places. No constants are given. Whether binding was seen depends on the method and setting. For some of these results: In cells and extracts the contact can be indirect. Some entries that bind do so weakly or less than the wild type. Where a sequence is shown, tags or fusion partners need not be part of it.

In experiment [1] the target is T1, PUB30-FLAG (proPUB30::PUB30-FLAG) (Arabidopsis thaliana) (UniProt Q058P4).
T1 sequence: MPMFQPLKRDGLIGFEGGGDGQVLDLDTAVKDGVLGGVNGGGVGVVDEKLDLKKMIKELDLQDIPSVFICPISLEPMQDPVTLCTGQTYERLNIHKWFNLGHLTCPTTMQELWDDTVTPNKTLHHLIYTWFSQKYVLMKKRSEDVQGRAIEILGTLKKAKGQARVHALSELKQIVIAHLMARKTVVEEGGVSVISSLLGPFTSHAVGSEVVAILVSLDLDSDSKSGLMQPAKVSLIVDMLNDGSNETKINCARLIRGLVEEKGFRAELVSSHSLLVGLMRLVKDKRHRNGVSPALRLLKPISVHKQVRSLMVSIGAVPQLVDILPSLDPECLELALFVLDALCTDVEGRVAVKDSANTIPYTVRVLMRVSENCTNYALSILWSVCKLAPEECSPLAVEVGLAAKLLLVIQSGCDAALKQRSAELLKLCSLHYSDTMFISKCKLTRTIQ
Kind of experiment: co-IP.

Experiment [2] has as its target T2, PUB31-FLAG (proPUB31::PUB31-FLAG) (Arabidopsis thaliana) (UniProt Q9FHN9).
T2 sequence: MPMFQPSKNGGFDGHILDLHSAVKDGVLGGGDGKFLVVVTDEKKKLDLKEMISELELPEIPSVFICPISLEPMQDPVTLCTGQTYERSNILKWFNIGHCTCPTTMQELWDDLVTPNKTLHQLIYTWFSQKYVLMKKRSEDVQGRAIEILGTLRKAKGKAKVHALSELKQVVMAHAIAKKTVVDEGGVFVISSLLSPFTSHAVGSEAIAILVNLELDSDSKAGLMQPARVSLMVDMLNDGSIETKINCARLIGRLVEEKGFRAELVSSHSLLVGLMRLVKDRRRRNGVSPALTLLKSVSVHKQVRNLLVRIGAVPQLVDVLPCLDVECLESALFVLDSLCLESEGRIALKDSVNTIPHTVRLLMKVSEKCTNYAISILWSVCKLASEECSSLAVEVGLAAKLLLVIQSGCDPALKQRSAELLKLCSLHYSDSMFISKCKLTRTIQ
Kind of experiment: co-IP.

Experiment [3] deals with T1, PUB30-FLAG (proPUB30::PUB30-FLAG) (Arabidopsis thaliana). Kind of experiment: co-IP. This is another data set of the same source.
The target in experiment [4] is T2, PUB31-FLAG (proPUB31::PUB31-FLAG) (Arabidopsis thaliana). Put plainly: co-IP. This is another data set of the same source.
Experiment [5] deals with T3, MBP-BAK1_CD (Arabidopsis thaliana) (UniProt Q94F62).
T3 sequence: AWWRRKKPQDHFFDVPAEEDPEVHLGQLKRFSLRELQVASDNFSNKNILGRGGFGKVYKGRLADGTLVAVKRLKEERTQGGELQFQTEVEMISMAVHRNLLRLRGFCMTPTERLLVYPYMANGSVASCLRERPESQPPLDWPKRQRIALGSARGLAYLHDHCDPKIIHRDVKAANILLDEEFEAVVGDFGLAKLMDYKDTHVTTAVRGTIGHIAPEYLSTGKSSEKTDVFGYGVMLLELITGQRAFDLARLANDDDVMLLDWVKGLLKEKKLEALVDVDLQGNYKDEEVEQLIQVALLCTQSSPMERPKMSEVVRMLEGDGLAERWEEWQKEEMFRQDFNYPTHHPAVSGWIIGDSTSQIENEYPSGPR
Kind of experiment: pull-down.

B1: ERECTA-YFP (proERECTA::ERECTA-YFP) (receptor, UniProt Q42371 25-976)
chain: EEGATLLEIKKSFKDVNNVLYDWTTSPSSDYCVWRGVSCENVTFNVVALNLSDLNLDGEISPAIGDLKSLLSIDLRGNRLSGQIPDEIGDCSSLQNLDLSFNELSGDIPFSISKLKQLEQLILKNNQLIGPIPSTLSQIPNLKILDLAQNKLSGEIPRLIYWNEVLQYLGLRGNNLVGNISPDLCQLTGLWYFDVRNNSLTGSIPETIGNCTAFQVLDLSYNQLTGEIPFDIGFLQVATLSLQGNQLSGKIPSVIGLMQALAVLDLSGNLLSGSIPPILGNLTFTEKLYLHSNKLTGSIPPELGNMSKLHYLELNDNHLTGHIPPELGKLTDLFDLNVANNDLEGPIPDHLSSCTNLNSLNVHGNKFSGTIPRAFQKLESMTYLNLSSNNIKGPIPVELSRIGNLDTLDLSNNKINGIIPSSLGDLEHLLKMNLSRNHITGVVPGDFGNLRSIMEIDLSNNDISGPIPEELNQLQNIILLRLENNNLTGNVGSLANCLSLTVLNVSHNNLVGDIPKNNNFSRFSPDSFIGNPGLCGSWLNSPCHDSRRTVRVSISRAAILGIAIGGLVILLMVLIAACRPHNPPPFLDGSLDKPVTYSTPKLVILHMNMALHVYEDIMRMTENLSEKYIIGHGASSTVYKCVLKNCKPVAIKRLYSHNPQSMKQFETELEMLSSIKHRNLVSLQAYSLSHLGSLLFYDYLENGSLWDLLHGPTKKKTLDWDTRLKIAYGAAQGLAYLHHDCSPRIIHRDVKSSNILLDKDLEARLTDFGIAKSLCVSKSHTSTYVMGTIGYIDPEYARTSRLTEKSDVYSYGIVLLELLTRRKAVDDESNLHHLIMSKTGNNEVMEMADPDITSTCKDLGVVKKVFQLALLCTKRQPNDRPTMHQVTRVLGSFMLSEQPPAATDTSATLAGSCYVDEYANLKTPHSVNCSSMSASDAQLFLRFGQVISQNSE
On to B1, for which the binding result is “binds weakly” in experiment [1], “binds weakly” in experiment [2], “binds” in experiment [3] and “binds” in experiment [4].

B2: BRI1 ASSOCIATED KINASE1 (BAK1), endogenous (receptor, UniProt Q94F62 26-615)
chain: NAEGDALSALKNSLADPNKVLQSWDATLVTPCTWFHVTCNSDNSVTRVDLGNANLSGQLVMQLGQLPNLQYLELYSNNITGTIPEQLGNLTELVSLDLYLNNLSGPIPSTLGRLKKLRFLRLNNNSLSGEIPRSLTAVLTLQVLDLSNNPLTGDIPVNGSFSLFTPISFANTKLTPLPASPPPPISPTPPSPAGSNRITGAIAGGVAAGAALLFAVPAIALAWWRRKKPQDHFFDVPAEEDPEVHLGQLKRFSLRELQVASDNFSNKNILGRGGFGKVYKGRLADGTLVAVKRLKEERTQGGELQFQTEVEMISMAVHRNLLRLRGFCMTPTERLLVYPYMANGSVASCLRERPESQPPLDWPKRQRIALGSARGLAYLHDHCDPKIIHRDVKAANILLDEEFEAVVGDFGLAKLMDYKDTHVTTAVRGTIGHIAPEYLSTGKSSEKTDVFGYGVMLLELITGQRAFDLARLANDDDVMLLDWVKGLLKEKKLEALVDVDLQGNYKDEEVEQLIQVALLCTQSSPMERPKMSEVVRMLEGDGLAERWEEWQKEEMFRQDFNYPTHHPAVSGWIIGDSTSQIENEYPSGPR
Turning to B2, the binding result was “binds weakly” in experiment [1], “binds weakly” in experiment [2], “binds” in experiment [3] and “binds” in experiment [4].

B3: GST-PUB31 (enzyme, UniProt Q9FHN9 1-444)
chain: MPMFQPSKNGGFDGHILDLHSAVKDGVLGGGDGKFLVVVTDEKKKLDLKEMISELELPEIPSVFICPISLEPMQDPVTLCTGQTYERSNILKWFNIGHCTCPTTMQELWDDLVTPNKTLHQLIYTWFSQKYVLMKKRSEDVQGRAIEILGTLRKAKGKAKVHALSELKQVVMAHAIAKKTVVDEGGVFVISSLLSPFTSHAVGSEAIAILVNLELDSDSKAGLMQPARVSLMVDMLNDGSIETKINCARLIGRLVEEKGFRAELVSSHSLLVGLMRLVKDRRRRNGVSPALTLLKSVSVHKQVRNLLVRIGAVPQLVDVLPCLDVECLESALFVLDSLCLESEGRIALKDSVNTIPHTVRLLMKVSEKCTNYAISILWSVCKLASEECSSLAVEVGLAAKLLLVIQSGCDPALKQRSAELLKLCSLHYSDSMFISKCKLTRTIQ
Take B3: the binding result in experiment [5] was “binds”.

B4: GST-PUB30 (enzyme, UniProt Q058P4 1-448)
chain: MPMFQPLKRDGLIGFEGGGDGQVLDLDTAVKDGVLGGVNGGGVGVVDEKLDLKKMIKELDLQDIPSVFICPISLEPMQDPVTLCTGQTYERLNIHKWFNLGHLTCPTTMQELWDDTVTPNKTLHHLIYTWFSQKYVLMKKRSEDVQGRAIEILGTLKKAKGQARVHALSELKQIVIAHLMARKTVVEEGGVSVISSLLGPFTSHAVGSEVVAILVSLDLDSDSKSGLMQPAKVSLIVDMLNDGSNETKINCARLIRGLVEEKGFRAELVSSHSLLVGLMRLVKDKRHRNGVSPALRLLKPISVHKQVRSLMVSIGAVPQLVDILPSLDPECLELALFVLDALCTDVEGRVAVKDSANTIPYTVRVLMRVSENCTNYALSILWSVCKLAPEECSPLAVEVGLAAKLLLVIQSGCDAALKQRSAELLKLCSLHYSDTMFISKCKLTRTIQ
For the molecule B4, in experiment [5], the binding entry is given as “binds”.
